Reference: PubChem BioAssay AID1259308 (NCATS, 2017)
Screen: 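Knock-downs that increase output of a recombinant reporter protein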 (primary screen). System: human HEK293 embryonic kidney cells stably expressing firefly luciferase (HEK-CMV-Luc2-Hygro). Knock-down reagent: single siRNA against human genes, 0.8 pmol siRNA per well. Timing: 72 h. Detection: 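Luciferase light (ONE-Glo) measured on one replicate plate set and viability (CellTiter-Glo) on the other, scaled to a negative control siRNA, with robust z-scores and luciferase per cell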. Scale: total luciferase, z-score and total luciferase, % of control: higher = more reporter protein produced; luciferase per cell, z-score: higher = more reporter output per viable cell; viable cells, % of control: higher = more viable cells. Rule for the call: 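An siRNA counts as active if its total luciferase robust z-score exceeds 3; genes with two or more such siRNAs out of three were retested with fresh siRNAs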. Calls: active = raised luciferase; inactive = no rise.
The whole screen tested about 59,000 reagents; shown is an unselected part. In the full data, about 1,510 (2.6%) were called active. 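Calls use total luciferase alone and ignore viability, so some active siRNAs may act by altering cell number.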 The numbers tell different reagents against one gene apart. No sequences are given here.

gene | siRNA no. | total luciferase, z-score | total luciferase, % of control | luciferase per cell, z-score | viable cells, % of control | Call
CD58 (GeneID 965) | 1 | -1.46 | 52.8 | -0.723 | 71.4 | inactive
CD58 (GeneID 965) | 2 | 0.507 | 92 | 1.52 | 68.9 | inactive
CD58 (GeneID 965) | 3 | 2.54 | 132 | 1.85 | 90.8 | inactive
GJD3 (GeneID 125111) | 1 | -0.49 | 72.1 | -0.0317 | 81.3 | inactive
GJD3 (GeneID 125111) | 2 | 0.665 | 95.1 | 0.359 | 96.7 | inactive
GJD3 (GeneID 125111) | 3 | -0.7 | 68 | -0.681 | 90.8 | inactive
ENC1 (GeneID 8507) | 1 | -0.386 | 74.2 | -0.722 | 100 | inactive
ENC1 (GeneID 8507) | 2 | -0.161 | 78.7 | -1.27 | 123 | inactive
ENC1 (GeneID 8507) | 3 | -0.169 | 78.5 | -0.923 | 112 | inactive
CRY1 (GeneID 1407) | 1 | -0.142 | 79.1 | 0.183 | 84.2 | inactive
CRY1 (GeneID 1407) | 2 | 0.159 | 85 | -0.553 | 110 | inactive
CRY1 (GeneID 1407) | 3 | -0.746 | 67.1 | -1.41 | 108 | inactive
ACTL6B (GeneID 51412) | 1 | 0.933 | 100 | 1.01 | 86 | inactive
ACTL6B (GeneID 51412) | 2 | -1.24 | 57.1 | -1.14 | 86.1 | inactive
ACTL6B (GeneID 51412) | 3 | 3.05 | 143 | 2.16 | 90.2 | active
PIK3C2B (GeneID 5287) | 1 | 1.45 | 111 | 1.19 | 90.5 | inactive
PIK3C2B (GeneID 5287) | 2 | 0.912 | 100 | 0.541 | 96.9 | inactive
PIK3C2B (GeneID 5287) | 3 | 0.335 | 88.5 | -0.292 | 107 | inactive
FOXR1 (GeneID 283150) | 1 | -1.83 | 45.5 | -1.72 | 80 | inactive
FOXR1 (GeneID 283150) | 2 | -1.31 | 55.8 | -0.618 | 73.4 | inactive
FOXR1 (GeneID 283150) | 3 | -0.945 | 63.1 | -0.0947 | 72.3 | inactive
MAPK1 (GeneID 5594) | 1 | -0.0723 | 80.4 | 0.365 | 81.7 | inactive
MAPK1 (GeneID 5594) | 2 | -2.72 | 27.9 | -2.85 | 66 | inactive
MAPK1 (GeneID 5594) | 3 | -0.588 | 70.2 | -1.28 | 110 | inactive
KBTBD13 (GeneID 390594) | 1 | -0.329 | 75.3 | 0.477 | 74.3 | inactive
KBTBD13 (GeneID 390594) | 2 | 0.814 | 98.1 | 0.806 | 88.6 | inactive
KBTBD13 (GeneID 390594) | 3 | -1.38 | 54.4 | -1.39 | 87.7 | inactive
PPIL2 (GeneID 23759) | 1 | -0.444 | 73.1 | -0.6 | 95.6 | inactive
PPIL2 (GeneID 23759) | 2 | -0.549 | 71 | 0.158 | 76.1 | inactive
PPIL2 (GeneID 23759) | 3 | 0.228 | 86.4 | -0.13 | 99.9 | inactive
SUMO1 (GeneID 7341) | 1 | 0.835 | 98.5 | 1.11 | 82.1 | inactive
SUMO1 (GeneID 7341) | 2 | -1.93 | 43.6 | -1.93 | 80.9 | inactive
SUMO1 (GeneID 7341) | 3 | 0.952 | 101 | 1.24 | 81.3 | inactive
POLN (GeneID 353497) | 1 | 0.612 | 94.1 | 1.98 | 62.4 | inactive
POLN (GeneID 353497) | 2 | 1.12 | 104 | 1.17 | 85.5 | inactive
POLN (GeneID 353497) | 3 | -1.1 | 60.1 | -0.609 | 78.8 | inactive

A few values from the entries so far:
For “total luciferase, % of control”, PPIL2 (GeneID 23759) #2 has 71
For “viable cells, % of control”, PIK3C2B (GeneID 5287) #2 reads 96.9
For “luciferase per cell, z-score”, MAPK1 (GeneID 5594) #2 reads -2.85
PIK3C2B (GeneID 5287) #1, total luciferase, % of control: 111
For “total luciferase, % of control”, MAPK1 (GeneID 5594) #3 has 70.2
For “Call”, GJD3 (GeneID 125111) #1 has inactive

The results go on:
gene | siRNA no. | total luciferase, z-score | total luciferase, % of control | luciferase per cell, z-score | viable cells, % of control | Call
DNASE1 (GeneID 1773) | 1 | 1.42 | 110 | 0.803 | 99.5 | inactive
DNASE1 (GeneID 1773) | 2 | -0.696 | 68 | -0.488 | 86.5 | inactive
DNASE1 (GeneID 1773) | 3 | 0.017 | 82.2 | -0.322 | 100 | inactive
SH3BP1 (GeneID 23616) | 1 | 0.716 | 96.1 | 0.372 | 97.4 | inactive
SH3BP1 (GeneID 23616) | 2 | -0.445 | 73 | 0.161 | 78.2 | inactive
SH3BP1 (GeneID 23616) | 3 | -0.918 | 63.6 | -0.134 | 73.7 | inactive
STEAP1 (GeneID 26872) | 1 | -0.277 | 76.4 | -1.06 | 113 | inactive
STEAP1 (GeneID 26872) | 2 | -0.976 | 62.5 | -1.95 | 117 | inactive
STEAP1 (GeneID 26872) | 3 | -0.946 | 63.1 | -1.79 | 113 | inactive
SLCO6A1 (GeneID 133482) | 1 | 0.333 | 88.5 | -0.631 | 117 | inactive
SLCO6A1 (GeneID 133482) | 2 | 2.04 | 122 | 1.66 | 88.4 | inactive
SLCO6A1 (GeneID 133482) | 3 | 1.08 | 103 | 1.03 | 88 | inactive
SH2D7 (GeneID 646892) | 1 | 1.45 | 111 | 2.9 | 57.7 | inactive
SH2D7 (GeneID 646892) | 2 | -0.919 | 63.6 | -0.862 | 89.2 | inactive
SH2D7 (GeneID 646892) | 3 | 0.0347 | 82.6 | 1.86 | 56.5 | inactive
MAP2K3 (GeneID 5606) | 1 | 0.537 | 92.6 | 0.775 | 84.4 | inactive
MAP2K3 (GeneID 5606) | 2 | -0.381 | 74.3 | -0.362 | 91.3 | inactive
MAP2K3 (GeneID 5606) | 3 | 0.143 | 84.7 | 0.42 | 84.8 | inactive
DHX15 (GeneID 1665) | 1 | 1.46 | 111 | 1.81 | 77 | inactive
DHX15 (GeneID 1665) | 2 | 1.89 | 120 | 1.48 | 90.5 | inactive
DHX15 (GeneID 1665) | 3 | 4.52 | 172 | 3.25 | 81.6 | active
